Consider 42 sequences from publication PMC7819943, “Rice protein-binding microarrays: a tool to detect cis-acting elements near promoter regions in rice”.

By UniProt entry, the sequences of proteins in these tests, tags left out.
UniProt Q0JBA9, entry or part of it: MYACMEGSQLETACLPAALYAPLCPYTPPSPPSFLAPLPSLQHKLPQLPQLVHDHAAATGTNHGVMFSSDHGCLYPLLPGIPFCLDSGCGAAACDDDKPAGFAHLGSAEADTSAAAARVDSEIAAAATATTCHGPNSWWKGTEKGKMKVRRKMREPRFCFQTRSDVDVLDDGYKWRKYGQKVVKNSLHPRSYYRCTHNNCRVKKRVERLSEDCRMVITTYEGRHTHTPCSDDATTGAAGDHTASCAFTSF

This is one part of the list.

The target of this assay is OsWRKY34 (Oryza sativa, UniProt Q0JBA9 1-250). As to the kind of experiment: protein-binding microarray (RPBM); PBS, 2% BSA, 51.3 ng/ul salmon testes DNA, 50 uM zinc acetate, 200 nM TF, 25 C, 1 h; high values mean tight binding. The conditions noted are these: protein: recombinant; tags: N-terminal polyhistidine and DsRed monomer fusion (pET32a); label: CyDye5-dUTP incorporated in the synthesized complementary strand; 3' TTTTT single-stranded linker to array surface; dsDNA, one strand shown. The method, boiled down:
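For the binding signal, per-feature fluorescence intensity was read in arbitrary units on an Axon 4000B scanner. Before scanning, a 2% BSA-blocked custom Agilent array made double-stranded with Cy5-dUTP was washed after 1 h at 25 °C with 200 nM protein and 50 µM zinc acetate. The proteins were Ni–NTA-purified transcription factors with N-terminal polyhistidine and DsRed fusions, expressed in E. coli BL21-CodonPlus.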
Turning to “TTTGAAACGAGCAATGTCTAATGTCAACTACTCTCTTATTCGGAGTCACCTAGTGCAG”, the binding signal was 8120 fluorescence intensity (a.u.).

Regarding “TTCCCTGCTGTCGTTGCTCTTATCCTATCCTACGTTTGTTCGGAGTCACCTAGTGCAG”, the binding signal was 8270 fluorescence intensity (a.u.).

For “ACAGTTTGTTCAGGGTACCCGGCTACCCGCCTTCTAACTACGGAGTCACCTAGTGCAG”, the binding signal was 8080 fluorescence intensity (a.u.).

“GTGTAGGAGTAGTTAGGGTTGTTGCTTGTTGGAGGGAAAACGGAGTCACCTAGTGCAG”: the binding signal was 9460 fluorescence intensity (a.u.).

On to “TTTTGATATACTTGATCTCCTCTTTCCATTTTTATCAAAACGGAGTCACCTAGTGCAG”, for which the binding signal was 10300 fluorescence intensity (a.u.).

Consider “TATTTTTTACCTGAAGTTGTCATTCTCCTGCCGTGTGTTTCGGAGTCACCTAGTGCAG”, for which the binding signal was 14500 fluorescence intensity (a.u.).

Turning to “AAGGATGATAGGTATATTGGGATGGAGGTAGTAGTATAGTCGGAGTCACCTAGTGCAG”, the binding signal was 10700 fluorescence intensity (a.u.).

For “ATGCCATGTCCTCGTCCTAGGTGAAACAGCCACATCATCTCGGAGTCACCTAGTGCAG”, the binding signal is 10700 fluorescence intensity (a.u.).

With “ACCCCAATAATTGCTGTTCCAAGCCCCAAAAAAAAACACTCGGAGTCACCTAGTGCAG”, the binding signal is 8320 fluorescence intensity (a.u.).

“GTTTCTTACCCATCTACTATGGCCTATTTAACCCTGCGCCCGGAGTCACCTAGTGCAG”: the binding signal was 11000 fluorescence intensity (a.u.).

As for “CTCTCTTATTCTTCTCTTCGACCGTTTCTTCGCCGACAAGCGGAGTCACCTAGTGCAG”, the binding signal is 10100 fluorescence intensity (a.u.).

In the case of “CCTCGCCGAAGCCTCTCTACCTCTGTGTGTCTCTCTCTCCCGGAGTCACCTAGTGCAG”, the binding signal was 8120 fluorescence intensity (a.u.).

On to “GTTTCATTTTTTCTTCTTTCTTTGCTTTTGTTTCCAAGTCCGGAGTCACCTAGTGCAG”, for which the binding signal was 10900 fluorescence intensity (a.u.).

For the sequence “GGTACAGTTTCGTGTCCCTGCACTTCATCGAGTGTATTTTCGGAGTCACCTAGTGCAG”, the binding signal was 11600 fluorescence intensity (a.u.).

Regarding “TCAGGTTTCTATTTCCACCACATATTTTAGTTTTAATCCACGGAGTCACCTAGTGCAG”, the binding signal is 10000 fluorescence intensity (a.u.).

In the case of “ACATTCTCGATTTTGCTCTCTAACTCTCGATTTTTATTGTCGGAGTCACCTAGTGCAG”, the binding signal was 8710 fluorescence intensity (a.u.).

As to “TTTTTCTGTTTGGTTTCATGTGCCTGTCCTTTTCACTGACCGGAGTCACCTAGTGCAG”, the binding signal was 15400 fluorescence intensity (a.u.).

With “GGTTGGTTGATTTGATTAGTGAAACAAAAAAAAAGTGGTTCGGAGTCACCTAGTGCAG”, the binding signal is 9950 fluorescence intensity (a.u.).

On to “ATGTCGTTACCAACGCCGCGCGTCTCCCACTCACCACCGCCGGAGTCACCTAGTGCAG”, for which the binding signal is 9350 fluorescence intensity (a.u.).

As for “TTTACATATAATTTTCTTTAGGGTTTTATAGCTTTTTTAACGGAGTCACCTAGTGCAG”, the binding signal is 8600 fluorescence intensity (a.u.).

Take “CGTGTACGCAACCTCCGCTTCATCACGCCCGTTCGTCGCGCGGAGTCACCTAGTGCAG”: the binding signal was 11200 fluorescence intensity (a.u.).

With “GCCCTTTTGGTCTCGGGTGGATCCGCTTAGCTTTGGTTCTCGGAGTCACCTAGTGCAG”, the binding signal was 8610 fluorescence intensity (a.u.).

As for “GTCCGCTTGCTGCTGAGCGGTGCCTAACATCCTTAAATTTCGGAGTCACCTAGTGCAG”, the binding signal is 8370 fluorescence intensity (a.u.).

Turning to “AAATTACGCTCCTGAAGTCACGCCTACGCGTGCACGTGCACGGAGTCACCTAGTGCAG”, the binding signal was 8870 fluorescence intensity (a.u.).

Turning to “TCGCCGCGCTCGCCCGCGCCCCGCCTTCCGCCGCCTGCGGCGGAGTCACCTAGTGCAG”, the binding signal is 8380 fluorescence intensity (a.u.).

Regarding “ATGGTGGTTTTTCTTTTTTTTTCCACTCACCCTCAAATAACGGAGTCACCTAGTGCAG”, the binding signal was 13800 fluorescence intensity (a.u.).

As for “AGTTTTTCATTTACTCATAGCCTTCCACATATGCTCATTCCGGAGTCACCTAGTGCAG”, the binding signal is 8740 fluorescence intensity (a.u.).

As to “TTTCGTAGCCTTAAAATTACCTCGTCACTGTCTTGTACTCCGGAGTCACCTAGTGCAG”, the binding signal is 9930 fluorescence intensity (a.u.).

On to “CGCACCAATCTCACCACATCAATCCACATGGCGTCGCGTCCGGAGTCACCTAGTGCAG”, for which the binding signal is 8610 fluorescence intensity (a.u.).

“CGCAATCGGATTTCATATTGTATCGGCTGTTACTGTGAAGCGGAGTCACCTAGTGCAG”: the binding signal is 8260 fluorescence intensity (a.u.).

For “TCAACGCTAGCTACCTACCCGTTGTTGACCAACGCTAATTCGGAGTCACCTAGTGCAG”, the binding signal is 9590 fluorescence intensity (a.u.).

Regarding “CGGCTACTTTAGCCGCGAACTCCCTTAACATTTCCCACCTCGGAGTCACCTAGTGCAG”, the binding signal is 8480 fluorescence intensity (a.u.).

On to “AACTATACCAACGTTCTATCTCCTTTGATGTCATGACATCCGGAGTCACCTAGTGCAG”, for which the binding signal is 11000 fluorescence intensity (a.u.).

On to “ATAATTTCATGAGTATTGTTGACTGTAGTATATACATTAGCGGAGTCACCTAGTGCAG”, for which the binding signal is 8230 fluorescence intensity (a.u.).

With “TCTCATCCGTCCGTCCATCATCTCATCTAATCTATCCGTCCGGAGTCACCTAGTGCAG”, the binding signal is 10300 fluorescence intensity (a.u.).

Take “CACCCTTTCTGTGCCCCGTTTTGTCGTCTTTGGAAGCGACCGGAGTCACCTAGTGCAG”: the binding signal was 8760 fluorescence intensity (a.u.).

Take “GCAGGTCGCGGCGTTCATCTCATCACTCATCAGGGTTTGTCGGAGTCACCTAGTGCAG”: the binding signal was 8180 fluorescence intensity (a.u.).

Consider “GGGGTGCACATGACACGACTGCTTCCGCGTTTCTTCTCGGCGGAGTCACCTAGTGCAG”, for which the binding signal was 9540 fluorescence intensity (a.u.).

As for “TGGCTGAACAGAACACTAGAATAGGGGAGGGGCGGCGATCCGGAGTCACCTAGTGCAG”, the binding signal is 9380 fluorescence intensity (a.u.).

In the case of “GGGGCCTCATCTTTTCGCTTATGTTTATATTTATCAACCACGGAGTCACCTAGTGCAG”, the binding signal was 12500 fluorescence intensity (a.u.).

Consider “ATATACACATTCTCCCATTGCTATATTATCTGTATTCTGACGGAGTCACCTAGTGCAG”, for which the binding signal is 13400 fluorescence intensity (a.u.).

For the sequence “CACTTGCAATCCTACCAAAATCTCGTGTTTTTCCTATTCCCGGAGTCACCTAGTGCAG”, the binding signal was 11100 fluorescence intensity (a.u.).
